The source of these data is the GenesisPotency data set.

The chains behind the UniProt entries cited, without tags or fusion partners.
UniProt Q03181, whole entry L134P: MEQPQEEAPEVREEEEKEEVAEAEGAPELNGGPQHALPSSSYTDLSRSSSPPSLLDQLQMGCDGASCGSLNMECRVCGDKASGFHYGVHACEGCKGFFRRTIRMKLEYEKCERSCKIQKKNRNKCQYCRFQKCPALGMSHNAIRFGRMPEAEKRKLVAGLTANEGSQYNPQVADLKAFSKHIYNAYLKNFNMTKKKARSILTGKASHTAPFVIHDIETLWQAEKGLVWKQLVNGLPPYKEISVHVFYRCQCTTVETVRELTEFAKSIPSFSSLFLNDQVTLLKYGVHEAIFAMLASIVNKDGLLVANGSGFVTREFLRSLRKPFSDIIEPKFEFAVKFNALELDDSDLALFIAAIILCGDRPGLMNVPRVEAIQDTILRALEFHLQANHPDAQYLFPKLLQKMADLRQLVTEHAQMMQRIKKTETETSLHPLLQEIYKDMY

Each structure is given as a SMILES string. Among all 9,300 compounds or so, about 150 (1.6%) were called active. Roughly 24% stayed inconclusive and do not appear here. Calls follow the shape of the dose curve; as a rule, active = well fitted inhibition curve with a large enough effect in the signal ratio in the repeat runs (not every such curve was filed as active); inconclusive = weak or mixed curves, or effect the other way; inactive = no such curve, though single readings can be large or run the other way; the % refers to the signal ratio. Some of the results follow.

The experiment deals with Peroxisome proliferator-activated receptor delta, Homo sapiens (UniProt Q03181). The experiment is described as follows: qHTS assay to identify small molecule antagonists of the peroxisome proliferator-activated receptor delta (PPARd) signaling pathway (AID 743215).
With `[I-].[Na+]`, the result was inactive.
